Data as given in PubChem BioAssay AID720710 (VTT Finland, 2013)
Test: 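Knock-downs that leave cyclin E-high cells sensitive to replication stress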 (primary screen). Cell system: human U-2 OS bone cancer cells, parental and a cyclin E (CCNE1) overexpressing line. Reagents: single siRNA against human genes, 1 µM siRNA in the printed spot mix. Timing: 67 h. Conditions: half the arrays: hydroxyurea 2 mM for 16 h, then 3 h recovery; other arrays untreated. Read-out: 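DNA synthesis measured as imaged EdU uptake per nucleus (DAPI) at 67 h, normalised to subgrid median and given as z-score versus non-targeting controls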. Reading the numbers: EdU z-score, cyclin E line, hydroxyurea: higher = more DNA synthesis than non-targeting controls.
Shown is a random part of about 1,380 deposited reagents. 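One array per condition without replicates; hydroxyurea arrays received 2 mM for 16 h plus 3 h recovery.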 Reagents against one gene are numbered here. Further read-outs or replicates are left out here.

no.	target gene	reagent no.	EdU z-score, cyclin E line, hydroxyurea
1	ERCC1 (ERCC excision repair 1, endonuclease non-catalytic subunit)	1	-2.04
2	ERCC1 (ERCC excision repair 1, endonuclease non-catalytic subunit)	2	-0.466
3	CHD5 (chromodomain helicase DNA binding protein 5)	1	-0.621
4	CHD5 (chromodomain helicase DNA binding protein 5)	2	2.59
5	NEK1 (NIMA related kinase 1)	1	-3.02
6	NEK1 (NIMA related kinase 1)	2	-1.7
7	CCNO (cyclin O)	1	-0.643
8	CCNO (cyclin O)	2	1.82
9	MRPS35 (mitochondrial ribosomal protein S35)	1	-0.472
10	MRPS35 (mitochondrial ribosomal protein S35)	2	0.198
11	MCM9	1	-0.976
12	MCM9	2	1.7
13	TOP2B (DNA topoisomerase II beta)	1	0.137
14	TOP2B (DNA topoisomerase II beta)	2	0.146
15	PURA (purine rich element binding protein A)	1	-0.876
16	PURA (purine rich element binding protein A)	2	-0.624
17	SETD7 (SET domain containing 7, histone lysine methyltransferase)	1	-0.147
18	SETD7 (SET domain containing 7, histone lysine methyltransferase)	2	0.442
19	MBD4 (methyl-CpG binding domain 4, DNA glycosylase)	1	-2.48
20	MBD4 (methyl-CpG binding domain 4, DNA glycosylase)	2	-1.79
21	HDAC1 (histone deacetylase 1)	1	-1.23
22	HDAC1 (histone deacetylase 1)	2	0.906
23	HELZ2 (helicase with zinc finger 2)	1	-0.398
24	HELZ2 (helicase with zinc finger 2)	2	1.04
25	FANCB (FA complementation group B)	1	-1.08
26	FANCB (FA complementation group B)	2	0.267
27	MCM3AP	1	-0.171
28	MCM3AP	2	0.11
29	FANCC (FA complementation group C)	1	-0.908
30	FANCC (FA complementation group C)	2	0.668
31	ALKBH2 (alkB homolog 2, alpha-ketoglutarate dependent dioxygenase)	1	-0.313
32	ALKBH2 (alkB homolog 2, alpha-ketoglutarate dependent dioxygenase)	2	1.32
33	SETD1A (SET domain containing 1A, histone lysine methyltransferase)	1	-0.469
34	SETD1A (SET domain containing 1A, histone lysine methyltransferase)	2	0.863
35	EZH1 (enhancer of zeste 1 polycomb repressive complex 2 subunit)	1	-0.665
36	EZH1 (enhancer of zeste 1 polycomb repressive complex 2 subunit)	2	0.349
37	POLD1 (DNA polymerase delta 1, catalytic subunit)	1	0.228
38	POLD1 (DNA polymerase delta 1, catalytic subunit)	2	1.99
39	MCM4 (minichromosome maintenance complex component 4)	1	-0.656
40	MCM4 (minichromosome maintenance complex component 4)	2	0.888
41	BNIP3 (BCL2 interacting protein 3)	1	-1.36
42	BNIP3 (BCL2 interacting protein 3)	2	0.00699
43	CDCA5 (cell division cycle associated 5)	1	-2.45
44	CDCA5 (cell division cycle associated 5)	2	-1.51
45	RFC4 (replication factor C subunit 4)	1	-2.05
46	RFC4 (replication factor C subunit 4)	2	-0.384
47	PINX1 (PIN2 (TERF1) interacting telomerase inhibitor 1)	1	-0.748
48	PINX1 (PIN2 (TERF1) interacting telomerase inhibitor 1)	2	-0.333
49	LOC730313	1	-0.296
50	LOC730313	2	0.259
51	REC8 (REC8 meiotic cohesin complex component)	1	-2.24
52	REC8 (REC8 meiotic cohesin complex component)	2	0.663
53	EPC2 (enhancer of polycomb 2)	1	-0.0166
54	EPC2 (enhancer of polycomb 2)	2	0.401
55	TENT4A (terminal nucleotidyltransferase 4A)	1	-0.543
56	TENT4A (terminal nucleotidyltransferase 4A)	2	-0.263
57	POT1 (protection of telomeres 1)	1	-0.448
58	POT1 (protection of telomeres 1)	2	-0.199
59	POLB (DNA polymerase beta)	1	0.0294
60	POLB (DNA polymerase beta)	2	0.0345
61	RECQL (RecQ like helicase)	1	-1.44
62	RECQL (RecQ like helicase)	2	-0.781
63	SFN (stratifin)	1	-0.401
64	SFN (stratifin)	2	0.291
65	CBX4 (chromobox 4)	1	-0.815
66	CBX4 (chromobox 4)	2	-0.205
67	RECQL5 (RecQ like helicase 5)	1	-0.342
68	RECQL5 (RecQ like helicase 5)	2	-0.0773
69	STAG3 (STAG3 cohesin complex component)	1	-0.779
70	STAG3 (STAG3 cohesin complex component)	2	0.278
71	SMUG1	1	0.382
72	SMUG1	2	0.691
73	ASF1B (anti-silencing function 1B histone chaperone)	1	-1.5
74	ASF1B (anti-silencing function 1B histone chaperone)	2	1.82
